These are yes or no findings as the source states them, for the method shown. Some results given as binding are weak or reduced against the parent protein; the word gives no strength.
B1: ADI-40327 (antibody, V domains shown)
VH: QVQLQESGPGLVKPSETLSLTCAVSGYSISSGYYWGWIRQPPGKGLEWIGSIYHSGNTYYRPSLKSRVTISVDTSKNQFSLKLSSVTAADTAVYYCARGKGGSWTAFGPWGQGTLVTVSS
VL: DIQMTQSPSSLSASVGDRVTITCRASQSISSFLNWYQQKPGKAPKLLISAASSLQSGVPSRFSGSGSGTDFTLTISSLQPEDFATYYCQQGHSTPPTFGGGTKVEIK
B2: ADI-46663 (antibody, V domains shown)
VH: EVQLVESGGGLVQPGGSLRLSCAASGFTFNAYAMNWVRQAPGKGLEWVARIRSKSNNYATYYADSVKDRFTISRDDSKNSLYLQMNSLKTEDTAVYYCVRQSYGNSNYAMDYWGQGTTVTVSS
VL: DIVMTQSPLSLPVTPGEPASISCRSSKSLLHSNGNTYLYWYLQKPGQSPQLLIYRMSNLASGVPDRFSGSGSGTDFTLKISRVEAEDVGVYYCMQHLEYPFTFGGGTKVEIK
B3: ADI-35281 (antibody, V domains shown)
VH: EVKLEQSGGGLVQPKGSLKLSCVASGFTFNAYAMNWVRQAPGQGLEWVARIRSKSNNYATYYAASVKDRFTISRDDSQSILYLQMNNLKTEDTAMYYCVRQSYGNSNYAMDYWGQGTTVTVSS
VL: DIQLTQSPPSVPVTPGESVSISCRSSKSLLHSNGNTYLYWFLQRPGQSPQLLIYRKSNLASGVPDRFSGSGSGTAFTLRISRVEAEDVGVYYCMQHLEYPFTFGGGTKLEIK

Amino acid sequences for entries named in this document (tags omitted). A change or cut given only in a name is not applied to a line headed by its entry. Chains listed by the source or under a name are the forms on record and can include a tag or linker.
cynomolgus monkey CCR8 (G7NYJ2, form named): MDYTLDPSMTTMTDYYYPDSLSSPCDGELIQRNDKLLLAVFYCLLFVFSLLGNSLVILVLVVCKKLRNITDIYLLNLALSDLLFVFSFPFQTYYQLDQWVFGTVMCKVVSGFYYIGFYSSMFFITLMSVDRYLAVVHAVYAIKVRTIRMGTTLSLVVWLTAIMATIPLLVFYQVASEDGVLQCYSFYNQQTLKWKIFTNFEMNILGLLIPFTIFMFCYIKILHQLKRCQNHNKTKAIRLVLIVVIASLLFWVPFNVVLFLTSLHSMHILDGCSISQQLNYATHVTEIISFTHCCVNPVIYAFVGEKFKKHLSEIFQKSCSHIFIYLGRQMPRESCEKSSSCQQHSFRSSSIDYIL

target: cynomolgus monkey CCR8 (cynomolgus monkey) (UniProt G7NYJ2); test: binding to mammalian cells expressing cynomolgus monkey CCR8

binding, binds:
B1, B2, B3
